# Data source: PubChem BioAssay AID1259424 (University of Nebraska Medical Center, 2018)
# Screen: 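Seek colon cancer survival genes behaving like KSR1, using a six-gene signature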 (primary screen)
# Cell system: human HCT116 colon cancer cells
# Knock-down reagent: siRNA pool against human genes, 50 nM
# Measured: 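Log2 levels of six mRNAs (branched-DNA multiplex), adjusted by two reference genes and the non-targeting median, then scored against the average KSR1 knockdown pattern as Pearson r and euclidean distance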
# Direction: mean correlation with KSR1 profile and KSR1 correlation: higher = expression change more like KSR1 knockdown; mean distance from KSR1 profile: higher = expression change less like KSR1 knockdown
# Here is a random part of about 14,000 reagents tested. 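Higher correlation or smaller distance means closer resemblance to KSR1 loss; control wells, including KSR1 knockdowns, recur on many plates.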 Not stated in the record: the time to read-out.
gene,mean correlation with KSR1 profile,mean distance from KSR1 profile,"KSR1 correlation, replicate 1","KSR1 correlation, replicate 2","KSR1 correlation, replicate 3"
DESI2 (desumoylating isopeptidase 2),-0.225,2.38,-0.322,-0.263,0.152
FGF2 (fibroblast growth factor 2),0.178,1.49,0.243,-0.21,0.142
CACNG3 (calcium voltage-gated channel auxiliary subunit gamma 3),-0.0406,1.08,-0.0952,0.0477,0.0206
DPCD (deleted in primary ciliary dyskinesia homolog (mouse)),0.00926,2.15,-0.0164,0.146,-0.0869
SLX4 (SLX4 structure-specific endonuclease subunit),-0.00863,3.13,0.00951,0.0367,-0.193
PRADC1 (protease associated domain containing 1),0.313,1.48,0.423,0.199,0.0604
MPC2,-0.444,2.59,-0.318,-0.582,-0.503
IRF9 (interferon regulatory factor 9),-0.0862,1.5,0.597,-0.198,-0.204
NUP205 (nucleoporin 205),-0.702,2.99,-0.735,-0.662,-0.626
OIP5 (Opa interacting protein 5),0.0617,2.83,0.207,-0.037,0.119
ADCY6 (adenylate cyclase 6),-0.625,2.01,-0.569,-0.733,-0.709
FCER1G (Fc epsilon receptor Ig),-0.429,3.22,-0.433,-0.316,-0.502
ADGRV1 (adhesion G protein-coupled receptor V1),0.306,2.35,0.259,0.104,0.623
VCY (variable charge Y-linked),-0.257,3.37,0.0113,-0.229,-0.366
CNTRL (centriolin),-0.0566,1.58,-0.0689,-0.201,-0.04
CITED4 (Cbp/p300 interacting transactivator with ED-rich tail 4),0.735,0.829,0.721,0.701,0.585
GCNA (germ cell nuclear acidic peptidase),-0.138,1.83,-0.0347,-0.0307,-0.254
C1QBP (complement C1q binding protein),0.084,1.42,0.00977,0.0992,0.0208
PRPF40B (pre-mRNA processing factor 40B),-0.09,2.56,-0.112,-0.435,0.0138
ATOH1 (atonal bHLH transcription factor 1),-0.2,1.94,-0.0209,-0.097,-0.285
SSPN (sarcospan),0.566,2.52,0.442,0.54,0.644
PCDHA10 (protocadherin alpha 10),0.718,0.94,0.407,0.846,0.141
ZBTB20 (zinc finger and BTB domain containing 20),-0.226,2.46,-0.101,0.0249,-0.67
"BRAF (B-Raf proto-oncogene, serine/threonine kinase)",0.0162,2.76,0.277,-0.11,-0.313
ICAM4,-0.215,4.37,-0.387,-0.27,-0.0885
MRPS22 (mitochondrial ribosomal protein S22),0.168,1.99,-0.0133,0.374,0.0992
GPRC6A (G protein-coupled receptor class C group 6 member A),0.244,2.69,0.255,0.352,0.128
ILKAP (ILK associated serine/threonine phosphatase),-0.353,2.05,-0.0743,-0.194,-0.73
PDAP1 (PDGFA associated protein 1),0.096,4.06,-0.127,-0.276,0.617
MID2 (midline 2),-0.168,1.9,-0.164,-0.252,0.00449
FLRT1 (fibronectin leucine rich transmembrane protein 1),-0.564,2.5,0.0287,-0.607,-0.766
PLCB3 (phospholipase C beta 3),0.05,1.83,0.0482,-0.0304,0.0789
SH2D3A (SH2 domain containing 3A),-0.0901,2.58,-0.202,-0.211,0.0951
NPY2R (neuropeptide Y receptor Y2),0.785,1.48,0.779,0.858,0.809
KLF4 (KLF transcription factor 4),0.0138,2.33,0.45,0.115,-0.251
HR (HR lysine demethylase and nuclear receptor corepressor),0.182,1.91,0.431,0.374,0.0381
"TEX15 (testis expressed 15, meiosis and synapsis associated)",-0.502,2.29,-0.569,-0.521,-0.523
GPR142 (G protein-coupled receptor 142),-0.385,4.3,-0.344,-0.502,-0.427
ZNF394 (zinc finger protein 394),0.805,2.66,0.656,0.844,0.887
RXFP1 (relaxin family peptide receptor 1),0.63,2.41,0.691,0.698,0.356
NUP42 (nucleoporin 42),0.427,1.92,0.389,0.457,0.337
LUC7L (LUC7 like),0.0532,2.71,0.233,0.0974,-0.337
ORC4 (origin recognition complex subunit 4),-0.356,1.62,0.0161,-0.604,-0.284
IL33R (interleukin 33 receptor),-0.016,1.89,-0.0474,-0.168,0.321
CSH2 (chorionic somatomammotropin hormone 2),0.419,2.94,0.46,0.361,0.379
CLCA2 (chloride channel accessory 2),-0.0619,1.22,0.00324,-0.278,0.136
STK17B (serine/threonine kinase 17b),0.217,1.99,0.367,0.272,0.00967
RASD1 (ras related dexamethasone induced 1),0.704,1.38,0.715,0.697,0.849
HIRA (histone cell cycle regulator),-0.234,2.85,-0.0398,-0.27,0.201
PTPRG (protein tyrosine phosphatase receptor type G),0.441,1.31,0.694,0.421,0.126
SCARB1 (scavenger receptor class B member 1),-0.055,2,-0.182,-0.224,0.197
BOLA1 (bolA family member 1),0.295,1.06,0.434,0.257,-0.0216
ANKRD2 (ankyrin repeat domain 2),-0.469,4.08,-0.399,-0.447,-0.485
SERBP1 (SERPINE1 mRNA binding protein 1),-0.784,2.95,-0.618,-0.828,-0.718
CRLF1 (cytokine receptor like factor 1),-0.397,3.22,-0.314,-0.328,-0.48
IFITM2 (interferon induced transmembrane protein 2),-0.199,1.51,-0.445,-0.316,-0.237
"ABL1 (ABL proto-oncogene 1, non-receptor tyrosine kinase)",0.234,1.93,0.147,0.0702,0.316
NPFF (neuropeptide FF-amide peptide precursor),-0.227,2.4,-0.239,-0.179,-0.292
LILRB3 (leukocyte immunoglobulin like receptor B3),-0.452,1.41,-0.424,-0.264,-0.503
KRABD3 (KRAB domain containing 3),0.587,2.56,0.696,0.492,0.202
COG5 (component of oligomeric golgi complex 5),-0.47,2.13,-0.587,-0.423,-0.303
ZAN (zonadhesin),0.473,1.17,0.557,0.609,0.422
AEBP2 (AE binding protein 2),-0.38,2.18,-0.253,-0.165,-0.541

Laid out differently: entries from further up
ICAM4 — mean correlation with KSR1 profile = -0.215; mean distance from KSR1 profile = 4.37; KSR1 correlation, replicate 1 = -0.387; KSR1 correlation, replicate 2 = -0.27; KSR1 correlation, replicate 3 = -0.0885
MRPS22 (mitochondrial ribosomal protein S22) — mean correlation with KSR1 profile = 0.168; mean distance from KSR1 profile = 1.99; KSR1 correlation, replicate 1 = -0.0133; KSR1 correlation, replicate 2 = 0.374; KSR1 correlation, replicate 3 = 0.0992
GPRC6A (G protein-coupled receptor class C group 6 member A) — mean correlation with KSR1 profile = 0.244; mean distance from KSR1 profile = 2.69; KSR1 correlation, replicate 1 = 0.255; KSR1 correlation, replicate 2 = 0.352; KSR1 correlation, replicate 3 = 0.128
ILKAP (ILK associated serine/threonine phosphatase) — mean correlation with KSR1 profile = -0.353; mean distance from KSR1 profile = 2.05; KSR1 correlation, replicate 1 = -0.0743; KSR1 correlation, replicate 2 = -0.194; KSR1 correlation, replicate 3 = -0.73
PDAP1 (PDGFA associated protein 1) — mean correlation with KSR1 profile = 0.096; mean distance from KSR1 profile = 4.06; KSR1 correlation, replicate 1 = -0.127; KSR1 correlation, replicate 2 = -0.276; KSR1 correlation, replicate 3 = 0.617
MID2 (midline 2) — mean correlation with KSR1 profile = -0.168; mean distance from KSR1 profile = 1.9; KSR1 correlation, replicate 1 = -0.164; KSR1 correlation, replicate 2 = -0.252; KSR1 correlation, replicate 3 = 0.00449
FLRT1 (fibronectin leucine rich transmembrane protein 1) — mean correlation with KSR1 profile = -0.564; mean distance from KSR1 profile = 2.5; KSR1 correlation, replicate 1 = 0.0287; KSR1 correlation, replicate 2 = -0.607; KSR1 correlation, replicate 3 = -0.766
PLCB3 (phospholipase C beta 3) — mean correlation with KSR1 profile = 0.05; mean distance from KSR1 profile = 1.83; KSR1 correlation, replicate 1 = 0.0482; KSR1 correlation, replicate 2 = -0.0304; KSR1 correlation, replicate 3 = 0.0789
SH2D3A (SH2 domain containing 3A) — mean correlation with KSR1 profile = -0.0901; mean distance from KSR1 profile = 2.58; KSR1 correlation, replicate 1 = -0.202; KSR1 correlation, replicate 2 = -0.211; KSR1 correlation, replicate 3 = 0.0951
